{
  "source": "patent US20250008983A1",
  "about": "“COMPOSITIONS CONTAINING PEROXYACIDS TO CONTROL PATHOGEN GROWTH IN ANIMAL FEED AND RELATED METHODS” (KEMIN INDUSTRIES, INC., priority 2023, published 2025)",
  "key": {"Enterobacteriaceae": {"tested_on": "Enterobacteriaceae", "format": "cell-based", "conditions": "peroxy acid mixture 5.0 and 10.0 kg/ton; peracetic acid 10.0 kg/ton; Sal CURB RM E Liquid 1 kg/ton", "description": "Materials and Method. Naturally contaminated layer feed was collected, ground, and mixed well prior to weighing. The ground feed was weighed and separated into 15 different bags, each containing 300 g. The product/prototype was accurately weighed at the needed dosage and adjusted to a total volume of 5 mL prior to adding into the 300 g of feed with a syringe and needle. Product/prototype was added in batches (i.e., 2, 2, and 1 mL separately) and mixed after each addition. Five mL of sterile water was added into the feed and served as the control. The treated feed samples were homogenized after treatment and kept at 25° C. until the day of enumeration.\nTEC of the 15 samples were studied over a period of 22 days with enumeration interval at time points 0, 1 and 22 days. The effect of peroxy acid was neutralized at each time point prior to enumeration. At each time point, 20 mL of 0.1 M sodium thiosulphate was added into 10 g of each treated feed sample in a sterile bag. The mixture was mixed well and left to stand for 10 minutes. After 10 minutes, 70 mL of BPW was added to achieve 10^−1 dilution. The feed suspension was homogenously mixed and left to stand for 30 minutes. Subsequently, the feed suspension was serial diluted to appropriate dilutions for enumeration. […]"}, "[1]": {"tested_on": "Salmonella enterica isolated from layer feed", "assay": "In vitro feed assay, high Salmonella contamination level (~5 log cfu/g)", "format": "cell-based", "conditions": "10.0 kg/ton", "description": "Preparation of the treatment. Perpropionic acid, peracetic acid, mixture of peroctanoic acid and perdecanoic acid (PC8/PC10) and Sal CURB products were used without any further dilution or mixing. The peroxy mix was prepared by mixing peracetic and perpropionic acid in 1:1 weight ratio. Briefly, 1.0 g of peroxy mix was prepared by weighing 0.5 g of peracetic acid into 0.5 g of perpropionic acid. The mixture was mixed well prior to usage. Similar procedure was followed in the preparation of 3% sulphuric acid (where […] of water) and peroxy mix with ester (where 0.9 g of peroxy mix (prepared with peracetic and propionic acid) was mixed with 0.1 g of propylene glycol propionate esters). […] Briefly, 1 mL of 75% phosphoric acid was added to 10 mL of Pro-Oxine solution and mixed well. The mixture is covered and let to stand for 10 mins prior to usage.\nPreparation of stock feed inoculum. […] Salmonella count of the stock inoculum was determined using conventional plating method with XLD agar (i.e., Xylose lysine deoxycholate (CM0469B; Oxoid)) and BPW (i.e., buffered peptone water (CM0509B; Oxoid)) prior to usage. […]\nPreparation of the feed inoculum. […] The Salmonella count of the feed was determined prior to treatment. […]"}},
  "note": "Some of these results come from one statement about several compounds together.",
  "data": [
    {"molecule": "CC(=O)OO", "note": "[Peracetic acid, peracetic acid]", "values": [
      {"measurement": "TEC reduction", "setting": "Enterobacteriaceae", "value": "up to 1 log CFU/g"},
      {"measurement": "Salmonella reduction", "setting": "[1]", "value": "3.0-4.0 log cfu/g"}
    ]}
  ]
}
